Laboratory results as given in US7659053B2, “Methods of alteration of surface affinities using non-chemical force-creating fields” (President and Fellows of Harvard College, priority 2003, dated 2010).

Columns and labels:
[1] = Ellipsometry of protein adsorbed on SAMs from fibroblast growth medium; settings: SAM on gold or palladium, 25° C., 12 hours
[2] = SPR of protein adsorption on SAMs on palladium; settings: SAM on thin layer of Pd; data not shown
NIH 3T3 fibroblast cells = assay: Culture of NIH 3T3 fibroblasts on micropatterned SAMs on gold and palladium; type: cell-based
Experimental: To test the ability of SAMs on palladium to support the adhesion and growth of cells in micropatterns, certain features on the substrates were defined using microcontact printing, using techniques similar to those described above. A poly(dimethylsiloxane) (PDMS) stamp that carried microfeatures was inked with 2 mM octadecanethiol (C18) in ethanol, dried under a stream of nitrogen, then brought it into contact with the palladium films for 2 to 10 seconds. Next, the palladium film was immersed in ethanolic solutions containing 2 mM of thiols A, B, or C for up to 50 hours.
NIH 3T3 fibroblast cells were then cultured on these micropatterned substrates. […] In contrast, OEG-terminated SAMs on the same substrate prevented the adhesion of cells during the same times.

motile mammalian cells [3] = assay: Confinement of cells to micropatterns on SAM-coated gold substrates; type: cell-based; settings: C18-stamped pattern
motile mammalian cells [4] = assay: Electrochemical release of patterned cells by desorbing the SAM; type: cell-based; settings: voltage applied about 30 seconds, SAM on gold
[5] = SPR of serum protein adsorption on SAM-coated gold after voltage pulses; settings: for coverage of proteins on initially SAM-coated sample: 30 s, relative to C18 SAM

Row | Compound | increase in thickness of organic/dielectric layer after incubation with fibroblast growth medium [1] | adsorption of proteins from the growth medium [2] | Time patterns of cells remained faithful to the original pattern (motile mammalian cells [3]) [days] | Minimal Voltage for Release (motile mammalian cells [4]) [V] | also measured
1 | OCCOCCOCCOCCOCCOCCOCCCCCCCCCCCS [thiol B, HS(CH2)11(OCH2CH2)6OH] | no statistically significant increase | generally resisted the adsorption of proteins | – | – | period SAM remained inert (NIH 3T3 fibroblast cells; SAM on gold): about 2 weeks
2 | OCCOCCOCCOCCOCCOCCOCCOCCCS [Compound 2, HS(CH2)3(OCH2CH2)7OH] | no statistically significant increase | generally resisted the adsorption of proteins | 4 to 10 | 0.6 | period SAM rendered the surface inert (NIH 3T3 fibroblast cells; SAM on palladium): 4-6 weeks
3 | OCCOCCOCCOCCCCCCCCCCCS [Compound C11EG3, HS—(CH2)11—(O—CH2—CH2)3—OH] | no statistically significant increase | generally resisted the adsorption of proteins | – | – | coverage of proteins on initially SAM-coated sample ([5]; after about −1.0 V pulse): about 56 % of a monolayer; coverage of proteins on initially SAM-coated sample ([5]; after about −1.4 V pulse): ~100 % of a monolayer; coverage of proteins on initially SAM-coated sample ([5]; after about −1.8 V pulse): ~100 % of a monolayer
4 | HS(CH2)11(OCH2CH2)n=3-6OH [Compound 1] | – | – | 14 to 25 | 0.8 | –
5 | HS(CH2)3(OCH2CH2)4-5OH [Compound 3] | – | – | 3 to 9 | 0.6 | –
6 | CCCCCCCCCCCCCCCCCCS [Compound C18, HS—(CH2)17—CH3] | about 2 nm | strongly promote adsorption of proteins | – | – | protein adsorptive capacity after voltage pulses ([5]; voltage pulses in the ranges tested): not found to change substantially

Some compounds share one wording; it may come from a single statement.
